Results published in PubChem BioAssay AID504375 (National Center for Advancing Translational Sciences (NCATS), 2011).
About 25 (2%) of roughly 1,600 compounds were called active. Roughly 7% stayed inconclusive and do not appear here. Calls follow the shape of the dose curve; as a rule, active = well fitted inhibition curve with a large enough effect; inconclusive = small, poorly fitted or top-dose-only effect, or effect the other way; inactive = no such curve, though single readings can be large or run the other way. This is one part of the list.

Chains of the proteins cited; added tags and fusions are not shown.
UniProt Q01196, whole entry, looked up: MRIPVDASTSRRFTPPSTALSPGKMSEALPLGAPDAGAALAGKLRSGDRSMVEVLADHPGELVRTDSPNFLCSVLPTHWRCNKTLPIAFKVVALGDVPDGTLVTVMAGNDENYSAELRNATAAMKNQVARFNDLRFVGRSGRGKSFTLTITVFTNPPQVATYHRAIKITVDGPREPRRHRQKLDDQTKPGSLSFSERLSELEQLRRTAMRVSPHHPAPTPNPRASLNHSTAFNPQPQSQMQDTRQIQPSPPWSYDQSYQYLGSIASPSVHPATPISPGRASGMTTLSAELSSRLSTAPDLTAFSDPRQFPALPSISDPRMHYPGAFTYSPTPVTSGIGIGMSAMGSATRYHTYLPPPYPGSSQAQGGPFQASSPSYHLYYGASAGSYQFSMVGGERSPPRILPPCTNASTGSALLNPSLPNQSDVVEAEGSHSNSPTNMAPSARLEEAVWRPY
UniProt Q13951, whole entry, looked up: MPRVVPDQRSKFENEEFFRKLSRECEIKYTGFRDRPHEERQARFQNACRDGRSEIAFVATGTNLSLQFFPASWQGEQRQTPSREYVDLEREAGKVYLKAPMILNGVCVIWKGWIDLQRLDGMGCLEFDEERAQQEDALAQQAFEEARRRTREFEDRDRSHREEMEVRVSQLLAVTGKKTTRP

target: Runt-related transcription factor 1 (Homo sapiens) + Core-binding factor subunit beta (Homo sapiens) (UniProt Q01196+Q13951); assay: qHTS Assay for Compounds Blocking the Interaction Between CBF-beta and RUNX1 for the Treatment of Acute Myeloid Leukemia: Hit Validation with Orthogonal Assay; conditions: CBFbeta-RUNX1 binding orthogonal assay, biochemical; series mostly up to 41 µM; activity change, negative = inhibition: at the top concentration
In short: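 This is an orthogonal TR-FRET assay. His6-CBF-beta and biotin-RUNX1 (30 nM each) were preincubated with compound for 30 min, then Tb-anti-His antibody (0.44 ng) and streptavidin-XL665 (5 nM) were added. The signal was read after 90 min.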
% is scaled to controls: 0 for no effect and ±100 for the full control effect.

Activity change, negative = inhibition, inactive:
C/C(O)=C(\C#N)P(=O)(c1ccccc1)c1ccccc1 -5.22%
C(=N\N1CCN(c2ccccn2)CC1)/c1cccc2ccccc12 3.82%
CCOC(=O)N1CCC(NS(=O)(=O)c2ccc(C#N)cc2)CC1 -5.19%
Cc1cc(C)n(-c2cc(C(C)(C)C)nc3c(-c4ccccc4)cnn23)n1 13.2%
Cc1ccc(OCc2ccc(C(=O)NN)o2)c([N+](=O)[O-])c1 4.87%
COc1ccc(/C=C2\CCc3c2nc2ccccc2c3C(=O)O)cc1OC 14.8%
Cc1ccc(-n2ncc(-c3nn[nH]n3)c2N)cc1 4.84%
O=C(CNC(=O)C(c1ccccc1)c1ccccc1)N/N=C\c1cccc(O)c1 -3.07%
CCCCCCCC1(C)NC(=O)NC1=O (centres undefined) -1.08%
CCOC(=O)C1=C(O)C(=O)N(C2CCCCC2)C1 -3.06%
COc1ccc(/C=C/C(=O)NCCc2nc3ccccc3[nH]2)cc1 2.14%
O=C(CCC(=O)N1CCN(c2ccc(O)cc2)CC1)c1ccc(Br)cc1 5.95%
Cn1c(=O)c2c(Nc3ccc(F)cc3)cc(=O)n(-c3ccccc3)c2n(C)c1=O -9.9%
Cc1nnsc1C(=O)N/N=C/c1ccccc1Cl 13.4%
CCOc1ccc(Nc2nc(N)nc(CSC(=S)N3CCOCC3)n2)cc1 -4.39%
Cc1cc(N2CCOCC2)n2ncc(-c3ccc(Cl)cc3)c2n1 11.1%
CC1=NNC(=O)C1Cc1ccc(F)cc1 (centres undefined) -3.95%
O=S(=O)(Nc1cccc(CCc2ccccn2)c1)c1cc(Cl)ccc1Cl -1.69%
Brc1cc(Br)cc(CN2CCSCC2)c1 5.09%
O=C(Oc1c(-c2ccccc2)c(=O)n2c3c(cccc13)CC2)c1ccccc1 -10%
Cc1cc2c3ccccc3ncn2n1 -1.43%
C=CCn1c(SCc2ccccc2Cl)nnc1-c1sc2nc(C)cc(C)c2c1N 1.22%
c1ccc2c(c1)Nc1ccncc1S2 -11.1%
Cc1nc([N+](=O)[O-])cn1CC(O)c1ccccc1 (centres undefined) 20.8%
CCCNC(=S)Nc1ccccc1 1.82%
c1ccc(N2CCOCCOCCOCCOCC2)cc1 -0.0612%
O=[N+]([O-])c1ccc2c(c1)S(=O)c1ccccc1-2 (centres undefined) 56.5%
Cc1ccc(NC(=S)Nc2ccccn2)cc1C 17.3%
CCN(CC)S(=O)(=O)c1cccc(N2CC(O)=C(c3ccccc3)C2=N)c1 -2.1%
CCOC(=O)/C(C#N)=C/Nc1cc(F)ccc1C -4.58%
Cc1c(O)nc2ccccn2c1=O 8.73%
O=C(/C=C/c1ccccc1)Nc1cccnc1Oc1ccccc1F -0.428%
CSC(=Nc1ccccc1)Nc1ccccc1 -2.42%
Cc1ccc(-c2c[n+](CC(=O)Nc3ccccc3C)c3n2CCC3)cc1 -9.58%
Clc1ccc(Nc2ccc(Cl)nn2)cc1 6.5%
COC(=O)C(=Cc1ccccc1[N+](=O)[O-])C(=O)OC -1.35%
COC(=O)c1ccc(Cn2cc([N+](=O)[O-])cn2)cc1 12.1%
CC(C)CC(=O)Nc1nnc(CSCc2ccc(F)cc2)s1 13.6%
CC(=O)c1ccc(S(=O)(=O)N2Cc3ccccc3CC2C(=O)O)cc1 (centres undefined) -4.12%
COc1ccc(C2CN=NC23CCc2ccccc2C3=O)cc1 (centres undefined) 3.69%
Cc1ccc2c(N)c(C(=O)c3ccccc3)sc2n1 61.8%
Cc1ccc2nc(C)c3c(c2c1)N(c1ccccc1)CC3 12.5%
Cc1cc2c(NS(=O)(=O)c3ccc(F)cc3)cccc2nn1 21.1%
CCOC(=O)N1CCN(CC(=O)Nc2sc(CC)cc2C(=O)c2ccc(OC)cc2)CC1 22.1%
Cc1cccc(CC(=O)c2c[nH]c3ccccc23)c1 -0.122%
COC(=O)c1ccccc1N=Nc1c(C)n[nH]c1C 14.1%
CC(C)C1N(C(N)=S)N=CC1(C)C (centres undefined) 0.367%
Cc1cc(OCC(=O)c2cccc(C(F)(F)F)c2)n2cnnc2n1 -0.0979%
CC(C)(C)N1CCC1C(N)=O (centres undefined) -7.25%
O=[N+]([O-])c1cc(Cl)cc(/C=N/NC(=S)Nc2ccc(S(=O)(=O)N3CCOCC3)cc2)c1O 36.7%
COc1ccccc1NC(=O)Nc1sccc1-c1nc2ccccc2s1 10.6%
COc1ccc(NC(=O)C2=NNC(=O)CC2)cc1S(=O)(=O)N1CCCCC1 8.22%
O=C(Nc1ccccc1)N1CCCC1c1cccs1 (centres undefined) 1.38%
Cc1cccnc1NC(=O)c1csnn1 -6.2%
CCCCCCOc1ccc(N2C(=O)CC(NCc3ccc(S(N)(=O)=O)cc3)C2=O)cc1 (centres undefined) 3.9%
O=C(N/N=C/c1cccc2nccnc12)c1ccncc1 30.1%
CC1=CC(=O)CC(C)(C)C1(O)/C=C/C(C)=C/C(=O)O (centres undefined) -0.0489%
COc1cc(/C=N/Nc2ccc(S(N)(=O)=O)cc2[N+](=O)[O-])cc(OC)c1O -1.88%
C/C(=C\C(=O)Nc1cscc1C)C(=O)O -4.11%
Cc1[nH]c(=S)c(C#N)c(C)c1Cc1ccc(Cl)cc1Cl -4.58%
CCOC(=O)c1nnn2c1nc(N1CCN(c3ccccc3)CC1)c1ccccc12 -1%
COC(=O)c1ccc(CN2CCCCC2)cc1 -1.75%
O=C1CN2CCC1C/C2=C\c1ccnc2c(Cl)cccc12 (centres undefined) 11.1%
Cn1c(SCC(=O)N/N=C/c2ccncc2)nc2ccccc21 8.61%
CCOC(=O)c1sc(NNC(=O)c2ccc(C)cc2)nc1C 8.71%
CC(C)(C)NC(=O)NCCc1ccccc1 2.28%
CC(=O)c1c(COC(=O)c2ccccc2Cl)nc2ccccc2[n+]1[O-] 32.1%
CC(C)c1cc(C(C)C)n2nc(N)nc2n1 -8.23%
O=C(c1ccc(-c2ccccc2)cc1)c1ccc([N+](=O)[O-])cc1 16.1%
COc1ccc2nc(-c3ccc(Cl)cc3)cc(C(=O)O)c2c1 34.7%
O=S(=O)(NCc1ccccn1)c1cc(OCC(F)(F)F)ccc1OCC(F)(F)F 8.87%
CN(C(=O)Nc1ccc(C(C)(C)C)cc1)C1CCCCC1 -20%
COc1ccc(CCNC(=S)NC(=O)c2c(-c3ccccc3Cl)noc2C)cc1OC 4.43%
N#Cc1cccc(C#N)c1Oc1ccc(S(=O)(=O)Nc2ccc(Cl)cc2)cc1 -2.57%
C=C(C)c1cccc(C(C)(C)NC(=O)N2CCN(c3ccccc3)CC2)c1 -1.33%
COC(=O)C/C(N)=C(\C#N)C(=O)OC 2.37%
COC(=O)c1cccnc1Oc1ccccc1 -3.43%
Fc1ccccc1/C=N/n1c(-c2cccnc2)n[nH]c1=S 10.1%
O=C(NC(=S)Nc1ccccc1N1CCCC1)c1cccs1 -0.294%
COc1ccc(-n2c(-c3ccc(Cl)cc3)c[n+]3c2CCCCC3)cc1 6.69%
COc1ccc(N/N=C(\C#N)C(=N)N2CCCCC2)cc1 8.07%
COC(=O)CNC(=O)CSc1ccccn1 7.21%
COc1cc(NCc2ccccc2O)c2ncccc2c1 9.87%
CC(C)(C)S(=O)(=O)/C(C#N)=C/Nc1ccccn1 -1.8%
N#CCN1CCC2(O)CCCCC2C1c1ccc2c(c1)OCO2 (centres undefined) -2.39%
COc1ccc(-n2c(=S)[nH]c(=O)c3cccnc32)cc1 7.72%
CCCCc1cc(=O)oc2cc(OCc3nn[nH]n3)ccc12 13.3%
COc1ccc(CCNC(=S)NC(=O)c2cccc(Cl)c2)cc1OC 13.9%
COc1ccc(Cn2c(O)c(C=Nc3ccccc3C(=O)O)c3ccccc3c2=O)cc1 17.2%
O=C(/C=C/c1cccnc1)/C=C/c1cccnc1 -1.77%
Cc1c(C(=O)c2ccccc2)oc2ccc3ccccc3c12 11.6%
CCOc1ccc(OCc2ccc(C(=O)NN)o2)cc1 3.02%
CC1CC(=O)Nc2ccccc2N1S(=O)(=O)c1cccc(F)c1 (centres undefined) -1.7%
Cc1c(C(=O)/C=C/N(C)C)nnn1-c1ccc(F)c(Cl)c1 -1.92%
CCOc1ccc(-n2c(C)cc(/C=N/Nc3nc(C)cc(=O)[nH]3)c2C)cc1 4.27%
CC(=O)NS(=O)(=O)c1ccc(NC(=O)c2cc3c(=O)n4ccccc4nc3s2)cc1 47.1%
C/C(=N\NC1=NCCN1)c1ccc(Cl)cc1 -5.51%
COc1ccccc1N1CC(C)(C)C(=O)N(C(=O)c2ccc(C)cc2)C1=S -1.84%
Cn1nc(-c2ccccc2)cc1NS(=O)(=O)c1ccccc1 14.9%
O=[N+]([O-])c1cccnc1Oc1ccccc1F -10.8%
CCC1(C(=O)OC)CCc2c(cc(OC)c3ccccc23)C1=O (centres undefined) 4.72%
O=C1COc2cccnc2N1 -2.97%
CCOC(=O)c1sc(NC(=O)CSC(=S)N2CCOCC2)nc1C 4.21%
Cc1nn2c(NCCCn3ccnc3)cc(C(C)C)nc2c1-c1ccccc1 4.28%
CCCCNc1ccc2c3c(cccc13)C(=O)N(CCCC)C2=O 29.7%
Cc1cc(-n2cnc(-c3cn(C)nc3C)n2)no1 -8.1%
CN(C)C(=O)Nc1ccccc1 8.07%
CCOC(=O)Nc1c2ccccc2nc2ccccc12 32.2%
CCCCn1cc([N+](=O)[O-])nc1C -2.36%
CCCn1nc(NC(=O)c2ccco2)c2cc3cc(C)ccc3nc21 36.3%
S=c1[nH]nc(-c2ccccn2)n1/N=C/c1ccco1 -14.1%
COC(=O)[C@H](C)NC(=O)NCc1ccccc1 9.91%
S=C(Nc1ccccc1)Nc1nccs1 -5.57%
S=c1[nH]ccn1-c1ccccc1Cl -1.77%
COC(=O)c1scc(C)c1NS(=O)(=O)c1ccc(NC(C)=O)cc1 -0.979%
CC1SCC(=NOCc2c(Cl)cccc2Cl)CS1 (centres undefined) 16.9%
Cc1ccc(C#N)c(SCc2ccccc2F)n1 11.8%
Clc1nc(Cl)nc(-c2cn(-c3ccccc3)c3ccccc23)n1 -21.3%
CC1=CC2=NC(=O)/C(=C/c3coc4ccccc4c3=O)C(=N)N2O1 36.4%
Cc1cc(C)c(OCC(=O)N(Cc2ccc(N(C)C)cc2)C2CCS(=O)(=O)C2)c(C)c1 (centres undefined) 1.38%
CCCCCCC(=O)N(O)C1CC(=O)N(c2ccc(Cl)cc2)C1=O (centres undefined) 14.4%
COc1ccc(CCn2cnc3c([nH]c4ccccc43)c2=O)cc1 -7.11%
NC(=O)/C(=C\c1ccncc1)c1cccc2ccccc12 16.1%
CCOC(=O)Cc1c[nH]c(=S)[nH]c1=O -1.49%
